# Results reported in publication doi:10.1101/2025.06.05.658052 (bioRxiv, 2025).
# These are yes or no findings as the source states them, for the method shown. A result given as binding can be weak or reduced; the word gives no strength. Where a sequence is shown, tags or fusion partners need not be part of it.
# Molecular target: T1, His-tagged A. baumannii RecA (Acinetobacter baumannii) (UniProt A3M645)
# T1 sequence: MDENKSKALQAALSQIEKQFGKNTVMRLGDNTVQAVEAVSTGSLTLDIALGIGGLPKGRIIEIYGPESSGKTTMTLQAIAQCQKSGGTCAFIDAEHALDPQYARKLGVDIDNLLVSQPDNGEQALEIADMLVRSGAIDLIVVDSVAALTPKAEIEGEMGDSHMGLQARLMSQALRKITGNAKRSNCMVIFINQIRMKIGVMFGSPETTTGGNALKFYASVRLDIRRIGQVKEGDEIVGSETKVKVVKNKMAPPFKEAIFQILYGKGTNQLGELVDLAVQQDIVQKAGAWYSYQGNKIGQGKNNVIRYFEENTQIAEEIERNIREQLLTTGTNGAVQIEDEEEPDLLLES
# Assay: SEC
substance,measurement,value
"EppR (error-prone polymerase regulator), purified (Acinetobacter baumannii)",binding,binds
